Results on two substances are retold here after article PMC9973269.

The experiment concerns the target T1, GST-ScaA (passenger domain of ScaA, ScaA_(30-1000), Boryong genotype) (Orientia tsutsugamushi (Boryong genotype)).
T1 sequence: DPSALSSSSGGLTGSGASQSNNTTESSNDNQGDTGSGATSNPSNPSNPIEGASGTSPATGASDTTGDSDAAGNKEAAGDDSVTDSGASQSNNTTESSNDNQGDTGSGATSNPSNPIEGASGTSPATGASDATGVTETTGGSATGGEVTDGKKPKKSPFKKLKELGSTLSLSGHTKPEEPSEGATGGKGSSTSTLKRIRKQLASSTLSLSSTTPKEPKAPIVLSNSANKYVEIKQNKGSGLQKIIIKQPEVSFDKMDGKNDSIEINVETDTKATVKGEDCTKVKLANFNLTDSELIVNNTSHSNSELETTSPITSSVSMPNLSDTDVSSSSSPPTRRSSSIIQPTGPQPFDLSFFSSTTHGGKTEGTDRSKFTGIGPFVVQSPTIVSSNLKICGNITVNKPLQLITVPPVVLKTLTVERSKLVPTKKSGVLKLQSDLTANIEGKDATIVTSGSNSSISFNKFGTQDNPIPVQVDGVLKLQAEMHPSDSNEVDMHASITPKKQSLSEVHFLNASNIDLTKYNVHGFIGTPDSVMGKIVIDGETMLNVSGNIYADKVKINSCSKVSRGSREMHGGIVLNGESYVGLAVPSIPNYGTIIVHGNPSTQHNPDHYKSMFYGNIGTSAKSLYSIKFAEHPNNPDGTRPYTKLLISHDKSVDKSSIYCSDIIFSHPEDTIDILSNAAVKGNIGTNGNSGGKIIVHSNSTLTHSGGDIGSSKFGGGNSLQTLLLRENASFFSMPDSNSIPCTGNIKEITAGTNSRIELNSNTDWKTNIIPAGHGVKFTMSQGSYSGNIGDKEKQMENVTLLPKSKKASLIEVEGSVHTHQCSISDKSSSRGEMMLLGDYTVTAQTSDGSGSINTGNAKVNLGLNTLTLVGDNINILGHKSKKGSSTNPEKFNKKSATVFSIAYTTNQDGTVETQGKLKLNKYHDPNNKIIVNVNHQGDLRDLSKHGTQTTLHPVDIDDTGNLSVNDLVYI
Description: pull-down; GST fusion proteins bound to glutathione beads, incubated with lysate (NP-40 buffer) of cells transfected with full-length or truncated vMLL5 at 4°C for 4 h; washed four times with 20 mM HEPES pH 7.4, 100 mM NaCl, 1% NP-40; immunoblot with anti-HA; only the target purified.

Results are given in words; binding and its absence hold for the method and conditions named. Binding seen in cells or lysates may run through a third protein. Binding calls can cover weak binding; strength is not graded here. Tags and fused reporters may be left off the sequences shown.

On to “vMLL5.N (N-terminal counterpart of vMLL5.C), HA tagged (human) (domain or fragment)”, for which the binding result is on record as “no binding”.

For “SET domain of vMLL5, HA tagged (human) (domain or fragment)”, the binding result is “binds”.
